According to paper PMC7819943, “Rice protein-binding microarrays: a tool to detect cis-acting elements near promoter regions in rice”:
Some of the results follow.

Sequences of proteins named here, by UniProt entry; tags and fusion partners are left off.
UniProt Q0JBA9, entry or part of it: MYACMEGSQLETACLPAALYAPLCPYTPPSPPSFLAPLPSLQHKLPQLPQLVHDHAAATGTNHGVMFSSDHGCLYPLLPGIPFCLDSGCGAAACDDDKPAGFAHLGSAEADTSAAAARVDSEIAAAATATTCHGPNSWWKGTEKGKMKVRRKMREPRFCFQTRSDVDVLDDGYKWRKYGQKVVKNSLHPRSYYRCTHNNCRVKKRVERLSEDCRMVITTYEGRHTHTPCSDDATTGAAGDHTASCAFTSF

The sequences below were run against OsWRKY34 (Oryza sativa, UniProt Q0JBA9 1-250) (assay: protein-binding microarray (RPBM); PBS, 2% BSA, 51.3 ng/ul salmon testes DNA, 50 uM zinc acetate, 200 nM TF, 25 C, 1 h; high values mean tight binding). Details: protein: recombinant; tags: N-terminal polyhistidine and DsRed monomer fusion (pET32a); label: CyDye5-dUTP incorporated in the synthesized complementary strand; 3' TTTTT single-stranded linker to array surface; dsDNA, one strand shown.
How it was run: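 Binding signal here means per-feature fluorescence intensity in arbitrary units. The values were read on an Axon 4000B scanner after a custom Agilent array, double-stranded by primer extension with Cy5-dUTP, was incubated with 200 nM protein at 25 °C for 1 h in PBS with 2% BSA, salmon testes DNA and 50 µM zinc acetate, then washed. The proteins were transcription factors with an N-terminal polyhistidine tag and DsRed, expressed in E. coli BL21-CodonPlus and purified on Ni–NTA.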

| Sequence | binding signal |
| --- | --- |
| ATGTATCTGCTGACCGAGAACCCTTGGGCATGCCGTCAAACGGAGTCACCTAGTGCAG | 8240 fluorescence intensity (a.u.) |
| ACAGTGCGGCAATTCAATCATTTATATTTTTTTATTCTCGCGGAGTCACCTAGTGCAG | 9150 fluorescence intensity (a.u.) |
| TCTAGTTGTATTCTAAAGCTTTACTTAAGTATTCTCCTTTCGGAGTCACCTAGTGCAG | 9980 fluorescence intensity (a.u.) |
| ATGAGATCATCTCAGCCCACCTGTTGCGTGCTACCAGTTCCGGAGTCACCTAGTGCAG | 8760 fluorescence intensity (a.u.) |
| CAACCAACCACCCTCAACCTCTCCTCTCTGCTCCGCTCCGCGGAGTCACCTAGTGCAG | 8880 fluorescence intensity (a.u.) |
| ACACATATTTATTTTCTCCACTACCACAGAAGGAACTTTTCGGAGTCACCTAGTGCAG | 9140 fluorescence intensity (a.u.) |
| TACTAGCTTGCACATACACTCCATTTCTTCTACCCCTATACGGAGTCACCTAGTGCAG | 9150 fluorescence intensity (a.u.) |
| GTTCCCATATTTATCATTGCATTATTCTGTCTGGCTGTCTCGGAGTCACCTAGTGCAG | 8410 fluorescence intensity (a.u.) |
| TCCATACGTATTGACACGTAAACTTCCTCGATAGACATTCCGGAGTCACCTAGTGCAG | 8170 fluorescence intensity (a.u.) |
| TCCATCTGGCGAGGAGAGCAGAGCAGGGGAGGGGATCTTGCGGAGTCACCTAGTGCAG | 9520 fluorescence intensity (a.u.) |
| TGTTCGTCGCCGCCATCCCACTGACTACCTCGACATAGTTCGGAGTCACCTAGTGCAG | 14900 fluorescence intensity (a.u.) |
| GAACCTATGGAGTGTGCATCCTATCTCTCCAACCAAACACCGGAGTCACCTAGTGCAG | 9850 fluorescence intensity (a.u.) |
| GTTTACCTTACTCTACATGCCTATAACAATCATTCATCATCGGAGTCACCTAGTGCAG | 8470 fluorescence intensity (a.u.) |
| GTGGGGATGGAGGCGTCGTCGGGGTCGTCGTAGAGGTGGGCGGAGTCACCTAGTGCAG | 9240 fluorescence intensity (a.u.) |
| TAATTTTCTTCTCATATCTCTCTATCTCTCACTTATACATCGGAGTCACCTAGTGCAG | 11300 fluorescence intensity (a.u.) |
| ATCCATCGTCTTTACACGTACTTACCTTGCTAACCGCACTCGGAGTCACCTAGTGCAG | 8890 fluorescence intensity (a.u.) |
| TAGAATTTTGGTTTGTCATCCATATTTGAGTCGGTTTTTACGGAGTCACCTAGTGCAG | 8060 fluorescence intensity (a.u.) |
| CGTGTGCGTGTTGACTTCCACGTCAGCCTTGCCCTTCATCCGGAGTCACCTAGTGCAG | 11400 fluorescence intensity (a.u.) |
| TTGTCCAACACTACCTGTTGCAATGGGGTTCCTATATTTTCGGAGTCACCTAGTGCAG | 8380 fluorescence intensity (a.u.) |
| GGGGTTAAAATGGACTTTATCGTTTACAAATGATCTGAATCGGAGTCACCTAGTGCAG | 8770 fluorescence intensity (a.u.) |
| GCCAAGGCCTTACTGCTGCTTCTGTTTCTTGCCACCAATGCGGAGTCACCTAGTGCAG | 9650 fluorescence intensity (a.u.) |
| CCCTCACTTTCACTCCACACACACACTTCACGGTTCGCGCCGGAGTCACCTAGTGCAG | 8490 fluorescence intensity (a.u.) |
| GCTTCACCCTTATGTGCCACCGCCGCCGCACCACGCGCTCCGGAGTCACCTAGTGCAG | 8170 fluorescence intensity (a.u.) |
| ATGGTCATTTTCTGGGTTAATATGTTGCTGAATGGTAATTCGGAGTCACCTAGTGCAG | 12600 fluorescence intensity (a.u.) |
| CCCCTGGATCCAATCTGCACCGTCCATTCGCACGCAATCCCGGAGTCACCTAGTGCAG | 9360 fluorescence intensity (a.u.) |
| AGACGTGGCTGCATCTCTCCCTCTCTCTCGCGTTCCATTGCGGAGTCACCTAGTGCAG | 8670 fluorescence intensity (a.u.) |
| TCCCAAGCCTGCAGCCCCTAAGGACATTCCGCCTGTGAGCCGGAGTCACCTAGTGCAG | 9720 fluorescence intensity (a.u.) |

Part of the list above, with bars between the fields:
Sequence | binding signal
ATGAGATCATCTCAGCCCACCTGTTGCGTGCTACCAGTTCCGGAGTCACCTAGTGCAG | 8760 fluorescence intensity (a.u.)
CAACCAACCACCCTCAACCTCTCCTCTCTGCTCCGCTCCGCGGAGTCACCTAGTGCAG | 8880 fluorescence intensity (a.u.)
ACACATATTTATTTTCTCCACTACCACAGAAGGAACTTTTCGGAGTCACCTAGTGCAG | 9140 fluorescence intensity (a.u.)
TACTAGCTTGCACATACACTCCATTTCTTCTACCCCTATACGGAGTCACCTAGTGCAG | 9150 fluorescence intensity (a.u.)
GTTCCCATATTTATCATTGCATTATTCTGTCTGGCTGTCTCGGAGTCACCTAGTGCAG | 8410 fluorescence intensity (a.u.)
TCCATACGTATTGACACGTAAACTTCCTCGATAGACATTCCGGAGTCACCTAGTGCAG | 8170 fluorescence intensity (a.u.)
TCCATCTGGCGAGGAGAGCAGAGCAGGGGAGGGGATCTTGCGGAGTCACCTAGTGCAG | 9520 fluorescence intensity (a.u.)
TGTTCGTCGCCGCCATCCCACTGACTACCTCGACATAGTTCGGAGTCACCTAGTGCAG | 14900 fluorescence intensity (a.u.)
GAACCTATGGAGTGTGCATCCTATCTCTCCAACCAAACACCGGAGTCACCTAGTGCAG | 9850 fluorescence intensity (a.u.)
GTTTACCTTACTCTACATGCCTATAACAATCATTCATCATCGGAGTCACCTAGTGCAG | 8470 fluorescence intensity (a.u.)
GTGGGGATGGAGGCGTCGTCGGGGTCGTCGTAGAGGTGGGCGGAGTCACCTAGTGCAG | 9240 fluorescence intensity (a.u.)
TAATTTTCTTCTCATATCTCTCTATCTCTCACTTATACATCGGAGTCACCTAGTGCAG | 11300 fluorescence intensity (a.u.)
ATCCATCGTCTTTACACGTACTTACCTTGCTAACCGCACTCGGAGTCACCTAGTGCAG | 8890 fluorescence intensity (a.u.)

(continued)

| Sequence | binding signal |
| --- | --- |
| TTCGTCTCGCAATTTACACGCAAACTGTGTAGTTAGTTTTCGGAGTCACCTAGTGCAG | 8070 fluorescence intensity (a.u.) |
| TACTGTTGTGGGGATGCTCATATGCTGCTCTTAGGCAAATCGGAGTCACCTAGTGCAG | 8890 fluorescence intensity (a.u.) |
| GCCCGGCTCCAATTATCCATGACCGTCTCGTTCTCCTTTCCGGAGTCACCTAGTGCAG | 9460 fluorescence intensity (a.u.) |
| GCGTTCCATCTGATATGTGCATTTCTATCATATTATTGTACGGAGTCACCTAGTGCAG | 8960 fluorescence intensity (a.u.) |
| GAAACAATATTATTCCTCTGTCAAGCCTTTTCGACGAGCTCGGAGTCACCTAGTGCAG | 9900 fluorescence intensity (a.u.) |
| TTTTTTTTCTCCCATTATTTTTTTTTTCTCACGATTTTTTCGGAGTCACCTAGTGCAG | 9130 fluorescence intensity (a.u.) |
| GTTAACCATTTTCACTTTAATTTGTCCTTTCGATTGCAACCGGAGTCACCTAGTGCAG | 9080 fluorescence intensity (a.u.) |
| ATGGTTCTATTAATTAATTACTCCCTCCGTTTCATAATGTCGGAGTCACCTAGTGCAG | 11000 fluorescence intensity (a.u.) |
| GCCCCAGATATGCTATCAATCTTTCTTGCACCATCATCCTCGGAGTCACCTAGTGCAG | 10100 fluorescence intensity (a.u.) |
| TCCGTATCCCACACGGCCCATCAAATCTCATTGTTGCTTACGGAGTCACCTAGTGCAG | 9930 fluorescence intensity (a.u.) |
| TTAGTTACTGCACACAATATTCCTGTGTTTAAGCTTACCTCGGAGTCACCTAGTGCAG | 11000 fluorescence intensity (a.u.) |
| ATGTCCGTACACGCGTTCTCGATCATTCTCGCGCGCCACCCGGAGTCACCTAGTGCAG | 13000 fluorescence intensity (a.u.) |
| GGCCCACCACCCGACAACCACTCCCACTCACACGCACGCGCGGAGTCACCTAGTGCAG | 8070 fluorescence intensity (a.u.) |
| TCGACTGATTGCTTCTTACACACCGCAACTCGCTCTAATTCGGAGTCACCTAGTGCAG | 12700 fluorescence intensity (a.u.) |
| ACCACCTACATCCACAGTACAGACAGGCAGAGCTAAGCTACGGAGTCACCTAGTGCAG | 9650 fluorescence intensity (a.u.) |
| CCCATCACCACTCTGCCCACATCCCGGCGTCGCTTCGTGTCGGAGTCACCTAGTGCAG | 9120 fluorescence intensity (a.u.) |
| CACCCTATTCCTCCTCGCATTCCCCGTTCGCGCCGCCGGACGGAGTCACCTAGTGCAG | 8240 fluorescence intensity (a.u.) |
| TCACCGGGCGGTCACCGGAGGCGGAGGCGGAGGGAGGGGCCGGAGTCACCTAGTGCAG | 10200 fluorescence intensity (a.u.) |
| TTTTTTCTGCCTTTTGTACTCCTAATACATACTTTCACAGCGGAGTCACCTAGTGCAG | 10800 fluorescence intensity (a.u.) |
| TTACCATTTCCGGGTCTACCGTTCCGATTTCGTTTTCAAGCGGAGTCACCTAGTGCAG | 8500 fluorescence intensity (a.u.) |
| AGTTCAGCTAATCTCCATTATTTCTTCCGCTTTGGTTTGACGGAGTCACCTAGTGCAG | 12900 fluorescence intensity (a.u.) |
| CAATATATGCTGTTCTTGTGCTTGTGCACCATCGTCGTCGCGGAGTCACCTAGTGCAG | 10600 fluorescence intensity (a.u.) |
| GGTGGGGAGGTCACCGGGGCGAGGCGGGAGAGGAGATCCGCGGAGTCACCTAGTGCAG | 9630 fluorescence intensity (a.u.) |
| CCACCCGCTCGCCCGTCCGTTCGATTCGACGACACCTTCACGGAGTCACCTAGTGCAG | 10900 fluorescence intensity (a.u.) |
| GTCCCTCGTGGGCCCACTCCGCCGCTCTCCTCTCCGTCAACGGAGTCACCTAGTGCAG | 8590 fluorescence intensity (a.u.) |
| AGCCTATATTTTACACATTTTATTTTCCCTCTTTTCTCCTCGGAGTCACCTAGTGCAG | 9520 fluorescence intensity (a.u.) |
| TCCTCGTCATCCTCATCCTCCTCCTCTAACTCGCCCAAGCCGGAGTCACCTAGTGCAG | 8040 fluorescence intensity (a.u.) |
